Test results as given in patent publication US20100035945A1, “SMALL MOLECULE INHIBITORS OF BACTERIAL DAM DNA METHYLTRANSFERASES” (priority 2004, published 2010).
Numbering of substitutions follows the chain as printed. The exact form of at least one protein or probe is not confirmed. For some assays here: Weaker means in comparison with the reference protein, sequence or condition of that experiment. Where a protein sequence is shown, tags need not be part of it.

Key:
Test in all cases: activity assay
[1] = biological target: T1, EcoDam DNA adenine methyltransferase (Escherichia coli) (UniProt P0AEE8); settings: purified recombinant protein, protein details: His tag
T1 sequence: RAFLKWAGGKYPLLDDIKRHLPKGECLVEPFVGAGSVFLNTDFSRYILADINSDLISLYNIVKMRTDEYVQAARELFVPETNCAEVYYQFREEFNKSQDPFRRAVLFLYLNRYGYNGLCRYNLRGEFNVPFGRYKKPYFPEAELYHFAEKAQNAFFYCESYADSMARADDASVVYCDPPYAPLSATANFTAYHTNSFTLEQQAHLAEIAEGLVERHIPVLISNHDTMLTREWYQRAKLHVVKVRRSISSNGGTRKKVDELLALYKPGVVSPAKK

[2] = biological target: T2, EcoDam L122A (Escherichia coli) (UniProt P0AEE8); settings: almost inactive on unmethylated DNA; purified recombinant protein; variant of 20-mer hemimethylated GATC
T2 sequence: T1 sequence with L118A

[3] = biological target: T3, EcoDam P134A (Escherichia coli) (UniProt P0AEE8); settings: N6-methyl-Ade in GATC of bottom strand (GMTC); normal activity; purified recombinant protein
T3 sequence: T1 sequence with P130A

[4] = biological target: T4, EcoDam P134G (Escherichia coli) (UniProt P0AEE8); settings: N6-methyl-Ade in GATC of bottom strand (GMTC); normal activity; purified recombinant protein
T4 sequence: T1 sequence with P130G

[5] = biological target: T5, EcoDam R124A (Escherichia coli) (UniProt P0AEE8); settings: N6-methyl-Ade in GATC of bottom strand (GMTC); methylation; purified recombinant protein
T5 sequence: T1 sequence with R124A

[6] = biological target: T6, EcoDam K9A (Escherichia coli) (UniProt P0AEE8); settings: N6-methyl-Ade in GATC of bottom strand (GMTC); methylation; purified recombinant protein
T6 sequence: T1 sequence with K5A

[7] = biological target: T7, EcoDam Y119A (Escherichia coli) (UniProt P0AEE8); settings: N6-methyl-Ade in GATC of bottom strand (GMTC); methylation; purified recombinant protein
T7 sequence: T1 sequence with Y115A

Row | Sequence | activity on this sequence (fold rate vs hemimethylated) ([1]; methylation, variant of 20-mer hemimethylated GATC) | activity on this sequence [2] | activity on this sequence [3] | activity on this sequence [4] | activity on this sequence (fold reduced vs wild type) [5] | activity on this sequence (% of wild type) [6] | activity on this sequence ([1]; N6-methyl-Ade in GATC of bottom strand (GMTC), single-turnover methylation, near-cognate sites 100-1000 fold slower) | activity on this sequence (fold reduced vs wild type) [7]
1 | GCGACAGTGATCGGCCTGTC (double strand) [20-mer unmethylated GATC] | 2 | less active | – | – | – | – | – | –
2 | GCGACAGTGATCGGCCTGTC (double strand) [20-mer hemimethylated GATC] | – | – | active | active | > 100 | 60 | active | > 100
